No constants are given. Whether binding was seen depends on the method and setting. For some assays here: Binding seen in cells or lysates may run through a third protein. Sequences can lack the tags named with a protein.

Experiment [1] deals with N-terminal half of phyB (D153-PHYB NT), BD fusion (Arabidopsis). Nature of the experiment: two-hybrid; light-dependent; AD and BD fusions in yeast AH109; growth on -LTH with 5 mM 3-AT and 20 µM phycocyanobilin, 30 °C, 2 days, red light or dark.
Experiment [2] addresses NG (phyB N terminal-GFP-GUS-NLS), previously described transgenic plants (Arabidopsis). In words: pull-down; semi-in vitro: phyB-GFP proteins immunoprecipitated from dark-grown seedlings on anti-GFP Dynabeads, whole cell extract of E. coli with MBP-SPA1 added; red or far-red light 5 min, 2 h at 4 °C; anti-MBP blot; only the target purified.

B1: AD-SPA1 (light-dependent two-hybrid, AH109) (protein, UniProt Q9SYX2 1-1029)
chain: MPVMERVAEETVATNNIQLKARVDDVPCNKLDARHNDMVIQSETANSDCPGSSAHRNVDLTKPPPPEEAAGAKLSVEELTLGNYRIVQGSNNTNVDSPRAGKFEHLYRLARGSAFRAGDGDLDSQPRDMDQMLSRIRQQLAGAPSERQNLKPFMSRRSDQNLEAFSERLRAAGENSIMNAPALISEGVQMKTPVSSSNFSQLLLKRAMKGKGVVGKNQETPPEFVSDQDLGSKEKKLDISKSPTPHDVLPLKSSPKGNGMVSHGDGNHSKSSIGISLREFLRSSYAKREKRHGLCLFRQLVELVDSAHSKRLFLLDLRPSLFTLVPSKKLRYIGNFGKNDLESDVDEDLNRRRPVVEESSSGGRDSKKRKMDLHLNSPGNQLQATSTGRPFKRKSPVIDLNMVDARNPDSCELQQQDYIKNLSVSSVSRKQSMSTWLEEQWYTCPEEINGEDIGEKSNIYALGVLLFELLCHCESGEMHAAMMADLRHRILPPTFLSKYPKEAGFCLWLLHPEPSSRPSARDILKSELICEDDSVKSTAAAEEISELLLHFLSSLEVQKKKKASKLLQDIQTLEDDIKEAERRYSSNVSLVRSHGAIEKRVQSSPLDEHCTTSSALFVPTANTDRLMSNIRQLEDAYFFMRSQINLSSSAATARSDKTLKDRDRCSENQNENQDMSTKGKSSDQLEVFFEGLCKFARYSKFETCGTIRSGDLLNSASVVCSLSFDPDEEHIAAAGISKKIKIFDFNAFMNESVGVHYPLVEMVNKSKLSCVCWNSYIKNYLASTDYDGVVQIWDAGTGQGFSQYTEHQKRAWSVDFSPSDPTKFVSGSDDCSVKLWSINEKRSLGTIWSPANVCCVQFSSYSNHLLAFGSADYKVYCYDLRYVKTPWCTLAGHEKAVSYVKFMDSETIVSASTDNSLKLWNLNKTNSSGLSPGACSLTYKGHTNQKNFVGLSVLDGYIACGSETNEVYSYYKSLPMPMTSYKFGSVDPISGNEYFDDNGQFVSSVCWRKKSNMLVAANSTGNMKLLKLV
For B1, the binding result in experiment [1] was “no binding”.

B2: MBP-SPA1 (protein, UniProt Q9SYX2 1-1029)
chain: B1 chain
Consider B2, for which the binding entry in experiment [2] is reported as “no binding”.

(Values after article PMC6746701, “A phyB-PIF1-SPA1 kinase regulatory complex promotes photomorphogenesis in Arabidopsis” (Nature Communications, 2019).)
